# Reference: paper doi:10.1101/411223 (bioRxiv, 2018)
# Results are given in words; binding and its absence hold for the method and conditions named. Some binding calls cover weakened binding; strength is not graded here.
# T1: Kap114p (S. cerevisiae), P53067
# T1 chain: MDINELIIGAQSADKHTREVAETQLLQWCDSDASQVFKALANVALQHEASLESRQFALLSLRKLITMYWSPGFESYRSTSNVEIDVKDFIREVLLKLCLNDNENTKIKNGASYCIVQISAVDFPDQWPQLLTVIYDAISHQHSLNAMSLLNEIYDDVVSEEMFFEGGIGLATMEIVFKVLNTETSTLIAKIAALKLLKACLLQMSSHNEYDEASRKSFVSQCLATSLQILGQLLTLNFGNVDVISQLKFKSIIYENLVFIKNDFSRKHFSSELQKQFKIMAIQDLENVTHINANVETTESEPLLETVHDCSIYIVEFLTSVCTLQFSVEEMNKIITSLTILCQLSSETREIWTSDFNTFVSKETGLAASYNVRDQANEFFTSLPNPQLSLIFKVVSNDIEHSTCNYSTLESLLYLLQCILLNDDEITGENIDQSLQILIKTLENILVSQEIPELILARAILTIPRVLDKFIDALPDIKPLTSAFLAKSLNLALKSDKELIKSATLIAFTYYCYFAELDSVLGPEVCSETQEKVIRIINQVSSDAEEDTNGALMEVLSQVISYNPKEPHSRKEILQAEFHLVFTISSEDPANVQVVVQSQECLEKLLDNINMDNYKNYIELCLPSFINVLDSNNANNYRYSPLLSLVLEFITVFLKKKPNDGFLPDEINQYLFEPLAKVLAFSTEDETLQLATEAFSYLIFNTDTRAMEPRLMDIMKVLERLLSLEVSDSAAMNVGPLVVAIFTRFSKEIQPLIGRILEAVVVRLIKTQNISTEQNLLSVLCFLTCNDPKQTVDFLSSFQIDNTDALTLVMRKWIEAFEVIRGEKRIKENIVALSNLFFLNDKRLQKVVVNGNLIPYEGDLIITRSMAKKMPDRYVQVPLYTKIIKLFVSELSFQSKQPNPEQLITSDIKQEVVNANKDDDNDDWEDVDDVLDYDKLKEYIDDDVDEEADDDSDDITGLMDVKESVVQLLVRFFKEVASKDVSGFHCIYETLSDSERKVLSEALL
# Experiments:
# [1] = target: GST-fused HEAT19 loop (899-956) (S. cerevisiae) (UniProt P53067); assay: pull-down
# [2] = target: T1, Kap114p (S. cerevisiae), P53067; assay: AUC; conditions: remark: other sources report otherwise
Binder,binding [1],binding [2]
"yTBP (61-240) (domain or fragment, S. cerevisiae, UniProt P13393 61-240, looked up) SGIVPTLQNIVATVTLGCRLDLKTVALHARNAEYNPKRFAAVIMRIREPKTTALIFASGKMVVTGAKSEDDSKLASRKYARIIQKIGFAAKFTDFKIQNIVGSCDVKFPIRLEGLAFSHGTFSSYEPELFPGLIYRMVKPKIVLLIFVSGKIVLTGAKQREEIYQAFEAIYPVLSEFRKM",binds weakly,
"Kap114p, P53067 1-1004 (natural protein) MDINELIIGAQSADKHTREVAETQLLQWCDSDASQVFKALANVALQHEASLESRQFALLSLRKLITMYWSPGFESYRSTSNVEIDVKDFIREVLLKLCLNDNENTKIKNGASYCIVQISAVDFPDQWPQLLTVIYDAISHQHSLNAMSLLNEIYDDVVSEEMFFEGGIGLATMEIVFKVLNTETSTLIAKIAALKLLKACLLQMSSHNEYDEASRKSFVSQCLATSLQILGQLLTLNFGNVDVISQLKFKSIIYENLVFIKNDFSRKHFSSELQKQFKIMAIQDLENVTHINANVETTESEPLLETVHDCSIYIVEFLTSVCTLQFSVEEMNKIITSLTILCQLSSETREIWTSDFNTFVSKETGLAASYNVRDQANEFFTSLPNPQLSLIFKVVSNDIEHSTCNYSTLESLLYLLQCILLNDDEITGENIDQSLQILIKTLENILVSQEIPELILARAILTIPRVLDKFIDALPDIKPLTSAFLAKSLNLALKSDKELIKSATLIAFTYYCYFAELDSVLGPEVCSETQEKVIRIINQVSSDAEEDTNGALMEVLSQVISYNPKEPHSRKEILQAEFHLVFTISSEDPANVQVVVQSQECLEKLLDNINMDNYKNYIELCLPSFINVLDSNNANNYRYSPLLSLVLEFITVFLKKKPNDGFLPDEINQYLFEPLAKVLAFSTEDETLQLATEAFSYLIFNTDTRAMEPRLMDIMKVLERLLSLEVSDSAAMNVGPLVVAIFTRFSKEIQPLIGRILEAVVVRLIKTQNISTEQNLLSVLCFLTCNDPKQTVDFLSSFQIDNTDALTLVMRKWIEAFEVIRGEKRIKENIVALSNLFFLNDKRLQKVVVNGNLIPYEGDLIITRSMAKKMPDRYVQVPLYTKIIKLFVSELSFQSKQPNPEQLITSDIKQEVVNANKDDDNDDWEDVDDVLDYDKLKEYIDDDVDEEADDDSDDITGLMDVKESVVQLLVRFFKEVASKDVSGFHCIYETLSDSERKVLSEALL",,no binding (tested: 0.86 mg/ml)
